# Laboratory results as given in the supplement of paper PMC8975748.
# Structures can show the parent of a compound that is named as a salt. ± gives the standard deviation of the averaged measurements. This is one part of the list. Values are raw readings; no control value is given beside them.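 The yeast community starts from one strain carrying four plasmids, each with an amino-acid or uracil synthesis gene and a fluorescent protein. Random plasmid loss creates mixed prototroph and auxotroph subpopulations. Cells were fixed and counted by automated confocal fluorescence imaging, and DMSO-treated wells served as the vehicle reference.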 Bridge positions count the residues as written; N and C are the ends. Square brackets hold non-standard residues; d marks the D form. Peptide text beside a SMILES is read from it. * marks the point of attachment. Ileψ(thiazoline)Cys = CC[C@H](C)[C@H](N)C1=N[C@H](C(=O)*)CS1; dOrn = NCCC[C@@H](N)C(=O)O
# System: Saccharomyces cerevisiae BY4741 SeMeCo community
# Assay: imaged cell count per well (cells); higher = more cells
# Details: 10 µM; 24 h; SM minimal medium
# Description: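 Same SeMeCo high-content imaging drug screen: Selleck FDA-approved drugs at 10 µM, 24 h in SM medium, 384-well plates, 3 replicates.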
row,SMILES,imaged cell count per well
1,N#Cc1ccc2[nH]cc(CCCCN3CCN(c4ccc5oc(C(N)=O)cc5c4)CC3)c2c1 [Vilazodone],25300 ± 3600
2,Cc1nccn1CC1CCc2c(c3ccccc3n2C)C1=O (stereo not drawn) [Ondansetron HCl],25700 ± 1500
3,Cn1c(=O)c2c(ncn2CC2OCCO2)n(C)c1=O [Doxofylline],26400 ± 17000
4,COc1ccc([C@@H]2Sc3ccccc3N(CCN(C)C)C(=O)[C@@H]2OC(C)=O)cc1 [Diltiazem HCl],22200 ± 4400
5,CC(=O)OCC(CCn1cnc2cnc(N)nc21)COC(C)=O [Famciclovir],13600 ± 1800
6,CC(=O)NC[C@H]1CN(c2ccc(N3CCOCC3)c(F)c2)C(=O)O1 [Linezolid],21700 ± 4400
7,CC(C[N+](C)(C)C)OC(N)=O (stereo not drawn) [Bethanechol chloride],18000 ± 7400
8,Cc1c(S(=O)(=O)O)oc2c1C(=O)C(=O)c1c-2ccc2c1CCCC2(C)C [Tanshinone IIA sulfonate (sodium)],15900 ± 5900
9,O=C(O)c1cccnc1Nc1cccc(C(F)(F)F)c1 [Niflumic acid],16800 ± 4800
10,O=c1cc(-c2ccc(O)c(O)c2)oc2cc(O)cc(O)c12 [Luteolin],26500 ± 1500
11,COc1ccc(CN2CCN(C(c3ccc(F)cc3)c3ccc(F)cc3)CC2)c(OC)c1OC [Lomerizine 2HCl],23300 ± 2300
12,COc1cccc(CCc2ccccc2OCC(CN(C)C)OC(=O)CCC(=O)O)c1 (stereo not drawn) [Sarpogrelate hydrochloride],29400 ± 5300
13,COc1ccc(C(C)=O)c(O)c1 [Paeonol],21600 ± 3600
14,CC1(C)S[C@@H]2[C@H](NC(=O)[C@H](N)c3ccc(O)cc3)C(=O)N2[C@H]1C(=O)O [Amoxicillin],19500 ± 3400
15,Nc1cc(C(Cl)=C(Cl)Cl)c(S(N)(=O)=O)cc1S(N)(=O)=O [Clorsulon],20900 ± 5300
16,CS(=O)(=O)c1ccc([C@@H](O)[C@@H](CO)NC(=O)C(Cl)Cl)cc1 [Thiamphenicol],23300 ± 4000
17,O=C(c1ccc(OCCN2CCCCC2)cc1)c1c(-c2ccc(O)cc2)sc2cc(O)ccc12 [Raloxifene HCl],30000 ± 2700
18,CN(Cc1cnc2nc(N)nc(N)c2n1)c1ccc(C(=O)N[C@@H](CCC(=O)O)C(=O)O)cc1 [Methotrexate disodium],3520 ± 460
19,CC(=O)OCC(COC(C)=O)OC(C)=O [Triacetin],25800 ± 2500

row,SMILES,imaged cell count per well
1,COc1ccc(C2CNC(=O)C2)cc1OC1CCCC1 (stereo not drawn) [Rolipram],25800 ± 3600
2,CCn1cc(C(=O)O)c(=O)c2cnc(N3CCNCC3)nc21 [Pipemidic acid],23500 ± 6900
3,O=c1[nH]c2ccccc2n1CCN1CCN(c2cccc(C(F)(F)F)c2)CC1 [Flibanserin],30300 ± 680
4,CN(C)CCC=C1c2ccccc2CCc2ccccc21 [Amitriptyline HCl],25600 ± 4800
5,CC[C@H](C)[C@H](N)C1=N[C@H](C(=O)N[C@@H](CC(C)C)C(=O)N[C@H](CCC(=O)O)C(=O)N[C@H](C(=O)N[C@H]2CCCCNC(=O)[C@H](CC(N)=O)NC(=O)[C@@H](CC(=O)O)NC(=O)[C@H](Cc3cnc[nH]3)NC(=O)[C@@H](Cc3ccccc3)NC(=O)[C@H]([C@@H](C)CC)NC(=O)[C@@H](CCCN)NC2=O)[C@@H](C)CC)CS1 [Bacitracin] ({Ileψ(thiazoline)Cys}-L[dE]IK[dOrn]I[dF]H[dD]N; lactam 4-C),23600 ± 11000
6,CN[C@@H]1[C@H](O[C@H]2[C@H](O[C@H]3[C@H](O)[C@@H](O)[C@H](N=C(N)N)[C@@H](O)[C@@H]3N=C(N)N)O[C@@H](C)[C@]2(O)C=O)O[C@@H](CO)[C@H](O)[C@H]1O [Streptomycin sulfate],26600 ± 2800
7,CC1(C)S[C@@H]2[C@H](NC(=O)[C@H](N)c3ccccc3)C(=O)N2[C@H]1C(=O)OCOC(=O)[C@@H]1N2C(=O)C[C@H]2S(=O)(=O)C1(C)C [Sultamicillin Tosylate],25700 ± 4000
8,Oc1c(Br)cc(Br)c2cccnc12 [Broxyquinoline],859 ± 190
9,Cc1c(C(N)=O)cc([N+](=O)[O-])cc1[N+](=O)[O-] [Dinitolmide],24100 ± 4900
10,C[C@H]1COc2c(N3CCN(C)CC3)c(F)cc3c(=O)c(C(=O)O)cn1c23 [Levofloxacin],27900 ± 4500
11,Cc1cc(-c2ccc(/N=N/c3ccc4c(S(=O)(=O)O)cc(S(=O)(=O)O)c(N)c4c3O)c(C)c2)ccc1/N=N/c1ccc2c(S(=O)(=O)O)cc(S(=O)(=O)O)c(N)c2c1O [Evans Blue],8300 ± 1000
12,CCn1cc(C(=O)O)c(=O)c2cc(F)c(N3CCNC(C)C3)c(F)c21 (stereo not drawn) [Lomefloxacin HCl],25240 ± 160
13,CC(=O)[O-].[K+] [Potassium acetate],23100 ± 3800
14,COC(=O)C1=C(C)NC(C)=C(C(=O)OCCN2CCN(C(c3ccccc3)c3ccccc3)CC2)C1c1cccc([N+](=O)[O-])c1 (stereo not drawn) [Manidipine],27600 ± 3300
15,COc1ccc(C(Cl)=C(c2ccc(OC)cc2)c2ccc(OC)cc2)cc1 [Chlorotrianisene],15000 ± 4300
16,C[C@H]1c2cccc(O)c2C(=O)C2=C(O)[C@]3(O)C(=O)C(C(N)=O)=C(O)[C@@H](N(C)C)[C@@H]3[C@@H](O)[C@@H]21 [Doxycycline],26500 ± 3000
17,CC(C)[C@H]1CC[C@H](C(=O)N[C@H](Cc2ccccc2)C(=O)O)CC1 [Nateglinide],21300 ± 5100
18,CCc1nn(CCCN2CCN(c3cccc(Cl)c3)CC2)c(=O)n1CCOc1ccccc1 [Nefazodone hydrochloride],20200 ± 12000
19,C[C@@H](O)[C@H]1C(=O)N2C(C(=O)O)=C(S[C@@H]3CN[C@H](C(=O)Nc4cccc(C(=O)O)c4)C3)[C@H](C)[C@H]12 [Ertapenem sodium],33400 ± 7000

# In the list so far, these contain a nitro group on carbon.
row,SMILES,imaged cell count per well
9,Cc1c(C(N)=O)cc([N+](=O)[O-])cc1[N+](=O)[O-] [Dinitolmide],24100 ± 4900
14,COC(=O)C1=C(C)NC(C)=C(C(=O)OCCN2CCN(C(c3ccccc3)c3ccccc3)CC2)C1c1cccc([N+](=O)[O-])c1 (stereo not drawn) [Manidipine],27600 ± 3300
